In PubChem BioAssay AID1259415 (National Center for Advancing Translational Sciences (NCATS), 2018):
Hit rate of the full screen: of about 410,000 compounds, about 18,000 (4.4%) were called active. This list was built around the results that the source calls inconclusive (neither active nor inactive); the mix of calls is not that of the screen. No stated cut-off is given here; in the data, active means activity change below about -60%; inconclusive means no clear call, values can overlap the other calls; inactive means above about -39%.
On the % scale 0 is the no-effect control and ±100 the full control effect.

Test: qHTS Assay for inhibitors of the human cytomegalovirus (HCMV)
Conditions: HFF cells, HCMV-luciferase reporter, 72 h; at 57.5 µM; stronger effect = lower value
Procedure, shortened: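 Steps: HFFs plated, 16 h 37C; compounds added; HCMV-luciferase added to MOI 1 PFU/cell; 72 h 37C; OneGlo reagent, 5 min room temperature; luminescence read, normalized to controls.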
With COCCN1CC(=O)N2C(c3cccc(C)c3)c3[nH]c4ccccc4c3C[C@H]2C1=O (stereo not given in full) the activity change, negative = inhibition was inactive: 91.8%. With CN1Cc2cc(C(=O)c3ccccc3O)cnc2NC1=O the activity change, negative = inhibition was inconclusive: -42.1%. In the case of CCOC(=O)C(C)On1c(-n2nc(C)cc2C)nc2ccccc2c1=O (stereo not given), the activity change, negative = inhibition is reported as inactive: -17.9%. In the case of CCC(C)(C)NC(=O)C(c1cccc(OC)c1OC)N(Cc1ccccc1)C(=O)CCC(=O)Nc1cc(C)on1 (stereo not given), the activity change, negative = inhibition is reported as inconclusive: -57.6%. For CCCN1CC(C)C(OC(C)=O)(c2ccccc2)CC1C (stereo not given), the activity change, negative = inhibition was inactive: -21.8%. In the case of Cn1c(SCC(=O)OC2CCCCC2)nnc1-c1ccco1, the activity change, negative = inhibition is reported as inactive: 3.92%. For COc1ccc(CNC(=O)CN2C(=O)CCCc3ccccc32)cc1, the activity change, negative = inhibition was inactive: 0%. In the case of Cc1ccc(-c2nc3ccc(Cl)cn3c2Nc2ccc3c(c2)OCCO3)s1, the activity change, negative = inhibition is reported as inactive: 96.8%. In the case of S=c1[nH]cnc2scc(-c3ccc(Br)cc3)c12, the activity change, negative = inhibition is reported as active: -86.8%. In the case of COC(=O)c1ccccc1Oc1ccc(NC(=O)CCCl)cc1, the activity change, negative = inhibition is reported as inconclusive: -48.7%. In the case of CCNc1nc(NCC)nc(N/N=C/c2ccc(Br)cc2)n1, the activity change, negative = inhibition is reported as inconclusive: -48.9%. With O=c1c2ccccc2nc(/C=C/c2ccc([N+](=O)[O-])o2)n1-c1ccc(O)cc1 the activity change, negative = inhibition was active: -100%. In the case of CC1CCCCN1S(=O)(=O)c1ccc(S(=O)(=O)N(CC(=O)Nc2ccccc2)Cc2cccs2)cc1 (stereo not given), the activity change, negative = inhibition is reported as inconclusive: -45.6%. In the case of Cc1ccc(NC(=O)C(OC(=O)c2ccccc2Cl)c2ccccc2)cc1Cl (stereo not given), the activity change, negative = inhibition is reported as inconclusive: -42.4%. For NC(=O)N/N=C/C=C/c1ccccc1, the activity change, negative = inhibition was inactive: 96.6%. For C=CC[C@@H](CC(=O)N[C@H](CO)Cc1ccccc1)C(=O)N[C@@H](COC(=O)[C@@H](CC=C)Cc1ccc(F)cc1)Cc1ccccc1, the activity change, negative = inhibition was inconclusive: -59.8%. With CCNC(=O)c1ccc2nc(Cc3ccccc3)oc2c1 the activity change, negative = inhibition was inactive: 60.5%. In the case of COc1cc2[nH]c(=O)n(CCCCCC(=O)NCCc3ccccc3)c(=O)c2cc1OC, the activity change, negative = inhibition is reported as inactive: 1.71%. With COc1ccccc1C1CC(=O)n2c(nc(-c3ccccc3)c2-c2ccccc2)S1 (stereo not given) the activity change, negative = inhibition was inconclusive: -40.6%. In the case of O=C1c2cccc3c([N+](=O)[O-])ccc(c23)C(=O)N1c1ccc(Cl)cn1, the activity change, negative = inhibition is reported as active: -105%. With CNC(=O)N(O)C1N(NC(=O)Nc2cccc3ccccc23)C(=S)SC1(C)C (stereo not given) the activity change, negative = inhibition was inactive: -28.7%. In the case of FC(F)(F)c1cccc(Cn2nnnc2-c2cc(Cl)cc(Cl)c2)c1, the activity change, negative = inhibition is reported as inconclusive: -47.3%. In the case of Cn1c(SCC(=O)Nc2cccc(O)c2)nnc1-c1ccc(S(=O)(=O)N2CCOCC2)cc1, the activity change, negative = inhibition is reported as active: -70.3%. In the case of O=c1[nH]c(C2CCN(S(=O)(=O)c3ccc4c(c3)OCCO4)CC2)nc2c1nnn2Cc1ccccc1, the activity change, negative = inhibition is reported as inconclusive: -57.7%. With Cc1cc(C(=O)COc2ccc([N+](=O)[O-])cc2)c(C)n1C1CC1 the activity change, negative = inhibition was inconclusive: 0%. For CCOc1ccc(/C=C/c2nc(C#N)c(Nc3ccc(OC)cc3)o2)cc1, the activity change, negative = inhibition was inconclusive: -51.3%. With CCCOc1ccc(CN(C(=O)c2nc(SC(C)C)ncc2Cl)C2CCS(=O)(=O)C2)cc1 (stereo not given) the activity change, negative = inhibition was active: -62.9%. In the case of O=C1C2C3c4ccccc4C(c4ccccc43)C2C(=O)N1c1ccncc1 (stereo not given), the activity change, negative = inhibition is reported as active: -64.4%. With CCOC(=O)C1=C(COC(=O)[C@@H]2CCCN2S(=O)(=O)c2ccc(C)cc2)NC(=O)NC1C (stereo not given in full) the activity change, negative = inhibition was inconclusive: -59.8%. With CC(C)OC(=O)CN1C(=O)C(=O)c2ccccc21 the activity change, negative = inhibition was inconclusive: -59%. In the case of COc1ccc(OC)c(C2=NS(=O)(=O)N(C)C(C(=O)NCc3ccco3)=C2)c1, the activity change, negative = inhibition is reported as inactive: -23.5%. In the case of CC(C)(C)N(Cc1ccccc1)C(=O)COC(=O)CNS(=O)(=O)c1ccc2ccccc2c1, the activity change, negative = inhibition is reported as inconclusive: -55.5%. In the case of CCc1ccc(OCC(=O)NC(=S)Nc2ccc(Br)c(C)n2)cc1, the activity change, negative = inhibition is reported as inconclusive: -46.3%. For CCOCCCNC(=O)c1cc(Cl)c(NC(=O)C2=C(C)OCCS2)cc1OC, the activity change, negative = inhibition was active: -80.1%. With CC1=C(C(=O)Nc2ccc(C)cc2C)C(c2cccn2C)n2ncnc2N1 (stereo not given) the activity change, negative = inhibition was inactive: 3.63%. With CCN(CC)S(=O)(=O)c1ccc(C(=O)NCc2cccs2)cc1 the activity change, negative = inhibition was inactive: -23%. With Nc1nc2c(c(=O)[nH]1)C(c1cccc3ccccc13)C1=C(N2)c2ccccc2C1=O (stereo not given) the activity change, negative = inhibition was inconclusive: -53.1%. For COc1ccc(OC)c(C2C(C(=O)c3ccco3)=C(O)C(=O)N2CC2CCCO2)c1 (stereo not given), the activity change, negative = inhibition was inactive: -5.05%. For COc1cccc(-c2ccc(C#N)c(SCC(=O)NCCc3cccc(Cl)c3)n2)c1, the activity change, negative = inhibition was inconclusive: -42%. For Nn1c(SCc2nc3ccccc3[nH]2)nnc1-c1ccccc1, the activity change, negative = inhibition was inactive: -1.31%. With ON=C(c1ccccc1)c1ccc2c3c(cccc13)CC2 the activity change, negative = inhibition was active: -62.3%. In the case of Cc1nn(CC(=O)O)c(=O)c2ccccc12, the activity change, negative = inhibition is reported as inactive: 5.17%. With Cn1ncc(Cl)c1C(=O)NNC(=O)Nc1cccc2ccccc12 the activity change, negative = inhibition was inconclusive: -42.8%. For COc1cccc(-c2c(-c3ccccc3OC)ncn2Cc2cccc(-c3ccccc3)c2)c1, the activity change, negative = inhibition was inconclusive: -47.4%. For COc1c(C(=O)Nc2ccc(Cc3ccncc3)cc2)ccc2ccccc12, the activity change, negative = inhibition was inactive: -32.5%. With COc1ccc(CN(C(=O)c2oc3ccc(F)cc3c2C)C2CCS(=O)(=O)C2)cc1 (stereo not given) the activity change, negative = inhibition was inconclusive: -43%. With CC(C)CCNC(=O)c1onc(CSc2nc3ccccc3[nH]2)c1C(=O)NCCC(C)C the activity change, negative = inhibition was inconclusive: -50.2%. For CC(Cc1cccnc1)NC(=O)c1cc(COc2c(F)cccc2F)on1 (stereo not given), the activity change, negative = inhibition was inconclusive: -52.1%. In the case of CC(=O)N/C(=C\c1ccc(F)cc1)C(=O)NC(C(=O)O)C(C)C (stereo not given), the activity change, negative = inhibition is reported as inconclusive: -40.4%. With Cc1ccccc1Cn1cc(NC(=O)c2nn(C)cc2Cl)cn1 the activity change, negative = inhibition was inconclusive: -57.4%. In the case of Cc1cc(C)cc(NC(=O)c2ccc(CN3CCc4ccccc4C3)cc2)c1, the activity change, negative = inhibition is reported as inconclusive: -55.7%. With O=C(NCc1ccc(Cl)cc1)c1ccc2c(c1)NC(=O)C(CS(=O)(=O)Cc1ccccc1Cl)N2 (stereo not given) the activity change, negative = inhibition was inconclusive: -49.4%. For Cc1cccc(S(=O)(=O)N/N=c2\sc3ccccc3n2C)c1, the activity change, negative = inhibition was inconclusive: -45.9%. In the case of ClCc1csc(-c2ccc(Cl)cc2)n1, the activity change, negative = inhibition is reported as inactive: -39.9%. In the case of COc1cccc(OC(=O)c2ccccc2)c1OC(=O)c1ccccc1, the activity change, negative = inhibition is reported as inactive: 20.4%. With C(=N\c1nc2ccccc2[nH]1)/c1cccs1 the activity change, negative = inhibition was inactive: 69.1%. For CCn1c(SCC(=O)N2CCN(c3ccccc3)CC2)nnc1-c1ccoc1C, the activity change, negative = inhibition was inconclusive: -43%. In the case of O=C(CC1OCC2CCCN2C1=O)Nc1ccc([N+](=O)[O-])cc1 (stereo not given), the activity change, negative = inhibition is reported as inactive: 9.3%. With CCOC(=O)Cc1csc(NC(=O)c2cc3ccccc3o2)n1 the activity change, negative = inhibition was inactive: 6.94%. For Oc1c(C(c2ccc(Cl)cc2)N2CCCC2)cc(Cl)c2cccnc12 (stereo not given), the activity change, negative = inhibition was inconclusive: -48.1%. For CCCOc1ccc(F)cc1-c1cc(C(=O)Nc2cc(OC)c(OC)c(OC)c2)[nH]n1, the activity change, negative = inhibition was inactive: -16.2%. With C[C@@H]1O[C@@H](O[C@H]2C[C@@H](O)[C@]3(CO)[C@@H]4C(CC[C@]3(O)C2)[C@@]2(O)CC[C@H](C3COC(=O)C3)[C@@]2(C)C[C@H]4O)[C@H](O)[C@H](O)[C@H]1O (stereo not given in full) the activity change, negative = inhibition was active: -99.2%. For Cc1ccc(S(=O)(=O)Oc2ccccc2/C=C2/SC(=O)NC2=O)cc1, the activity change, negative = inhibition was inactive: -22.3%. With O=C(NCc1ccccn1)c1ccccc1OCc1ccc(F)cc1 the activity change, negative = inhibition was inactive: 1.11%. For O=[N+]([O-])c1ccc(N2CCN(c3ccc(O)cc3)CC2)c(Cl)c1, the activity change, negative = inhibition was inconclusive: -58.5%. For O=C(O)CCNC(=O)OCC1c2ccccc2-c2ccccc21, the activity change, negative = inhibition was inconclusive: -40%. With Oc1ccc2ccccc2c1C=NNc1ccccn1 the activity change, negative = inhibition was active: -97.7%. For C/C(CC(=O)Nc1ccc(Cl)cn1)=N\NC(=O)Cc1cccs1, the activity change, negative = inhibition was inconclusive: -49.5%. In the case of CN(Cc1cccc(Cl)c1Cl)c1ccc(S(=O)(=O)N2CCCCC2)cc1[N+](=O)[O-], the activity change, negative = inhibition is reported as inconclusive: -59.5%. With Cc1cc(-c2ccc(C)c(S(=O)(=O)Nc3cc(C)on3)c2)on1 the activity change, negative = inhibition was inactive: -39.1%. In the case of COc1ccc(C(=O)N2CCCC(c3cc(C(=O)NCc4ccc(F)cc4)no3)C2)cc1 (stereo not given), the activity change, negative = inhibition is reported as inconclusive: -40.8%. For NCCc1ccc(OCc2ccccc2)c(OCc2ccccc2)c1, the activity change, negative = inhibition was active: -93.5%. In the case of O=C(NCc1ccccc1Cl)c1ccc(CSCc2cccc(F)c2)o1, the activity change, negative = inhibition is reported as inactive: -22.6%. In the case of Cc1ccc2nc(/C(C#N)=C\c3ccc([N+](=O)[O-])o3)[nH]c2c1, the activity change, negative = inhibition is reported as active: -103%. In the case of CC1=C(c2ccc(Cl)cc2)S(=O)(=O)N=C1N1CCN(c2cccc(C(F)(F)F)c2)CC1, the activity change, negative = inhibition is reported as active: -60.2%. For CC1(C)CC(=O)C2=C(C1)N=C1SCCC(=O)N1C2c1ccc(C(F)(F)F)cc1 (stereo not given), the activity change, negative = inhibition was inconclusive: -50.7%. With COc1cccc(NC(=O)C2C3C=CC(O3)C2C(=O)O)c1 (stereo not given) the activity change, negative = inhibition was inactive: -3.98%. With CC(=O)Nc1nnc(SCc2ccc(C(=O)Nc3ccccc3F)cc2)s1 the activity change, negative = inhibition was inactive: -20.2%. For CCCn1cc(CN2CCC(Cc3ccccc3)(C(=O)OCC)CC2)c(C)n1, the activity change, negative = inhibition was inconclusive: -53.3%. With N/C(=N\OC(=O)CCCOc1ccc(Cl)cc1Cl)c1ccncc1 the activity change, negative = inhibition was inactive: -12.7%. For C=C(C)[C@@H]1CCC2(C(=O)O)CC[C@]3(C)[C@H](CC[C@@H]4[C@@]5(C)CCC(=O)C(C)(C)[C@@H]5CC[C@]43C)[C@@H]12 (stereo not given in full), the activity change, negative = inhibition was inconclusive: -59.4%. In the case of Cc1onc(-c2ccccc2Cl)c1C(=O)Nc1ccc(S(=O)(=O)N2CCCC2)cc1, the activity change, negative = inhibition is reported as inconclusive: -51.5%. For COc1ccc(N2CCN(c3cncc(C)n3)CC2)cc1, the activity change, negative = inhibition was inconclusive: -58%. With Cc1ccc(-n2nnc3c(=O)n(CC(=O)N4CCCC4)cnc32)cc1 the activity change, negative = inhibition was inconclusive: -41.8%. For CCOc1ccc(NC(=O)c2ccc(CSc3nnnn3C)cc2)cc1, the activity change, negative = inhibition was inconclusive: -46.5%.
